Assay results from patent US4474765A (Farmitalia Carlo Erba S.p.A., priority 1982, dated 1984).

Assays:
[1] = general procedure: Boc solid-phase peptide synthesis; conditions: whole synthesis, sodium salt
[2] = general procedure: Boc solid-phase peptide synthesis; benzhydrylamine resin; conditions: whole synthesis, scale 1 g of peptide resin, sodium salt

Substance “Pyr-Gly-Pro-Pro-Ile-Ser-Ile-Asp-Leu-Ser-Leu-Glu-Leu-OH sodium salt” has an isolated mass ([1]; scale 1 g of peptide resin) of 0.120 g.
Work on “Pyr-Gly-Pro-Pro-Ile-Ser-Ile-Asp-Leu-Ser-Leu-Glu-Leu-NH2 Sodium salt” yielded an isolated mass [2] of 0.130 g.
“H-Gly-Pro-Pro-Ile-Ser-Ile-Asp-Leu-Ser-Leu-Glu-Leu-OH sodium salt” showed an isolated mass ([1]; scale 1 g of peptide resin) of 0.110 g.
Work on “H-Gly-Pro-Pro-Ile-Ser-Ile-Asp-Leu-Ser-Leu-Glu-Leu-NH2 sodium salt” yielded an isolated mass [2] of 0.110 g.
Substance “H-Gln-Glu-Pro-Pro-Ile-Ser-Leu-Asp-Leu-Thr-Phe-OH Sodium salt” has an isolated mass ([1]; scale 1 g of peptide-resin) of 0.130 g.
